# The supplement of paper PMC8728848
# This is one part of the list.
# B1: cFel (Cyprinus carpio), P68512 (protein)
# chain: LDCTVIDGNLKQIDAGSGSVVGVNNLNETFVLIDNVFTKISGSLKHFSVGPAGQLGVNTANNIFKYQSGGFVQLAGLLKQVDAGGDQIIAGVNMYDDIYCLNMDANNKWPSSNTPWVQINGKLKYYSCGPYSCWGVNSNDQIFIMKDVSSNVCSGSGSFINIPGLLSMIEVATDGSVFGVNSQGNLYQRTGVTRSKPDGTDWISMVACPNGHKHVSFDLGVLWLVCVDGSIRKCILTD
# Columns and labels:
# Test in all cases: glycan array binding signal (z-score within array); higher = stronger binding
# Details in all cases: glycan notation: IUPAC condensed, linker removed
# [1] = molecular target: Gal(b1-4)GlcNAc(b1-3)Gal(b1-4)GlcNAc(b1-3)[Gal(b1-4)GlcNAc(b1-3)Gal(b1-4)GlcNAc(b1-6)]GalNAc
# Outline: (§1)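 Negative Z-scores can be read as non-binding. The Z-score is calculated within each array and then averaged across arrays of one protein sequence at different concentrations or buffers and across linkers. Arrays, 3228 in all, were curated from the Consortium for Functional Glycomics database and kept only where the protein sequence was available.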
# [2] = molecular target: Gal(b1-4)GlcNAc(b1-3)Gal(b1-4)GlcNAc(b1-6)[Gal(b1-3)]GalNAc
# Outline: as §1
# [3] = molecular target: Gal(b1-4)GlcNAc(b1-3)Gal(b1-4)[Fuc(a1-3)]GlcNAc(b1-3)Gal(b1-4)[Fuc(a1-3)]GlcNAc
# Outline: as §1
# [4] = molecular target: Gal(b1-4)GlcNAc(b1-3)GalNAc
# Outline: as §1
# [5] = molecular target: Gal(b1-4)GlcNAc(b1-3)[Fuc(a1-3)GlcNAc(b1-6)]Gal(b1-4)Glc
# Outline: as §1
# [6] = molecular target: Gal(b1-4)GlcNAc(b1-3)[Gal(b1-4)GlcNAc(b1-6)]Gal(b1-4)GlcNAc
# Outline: as §1
# [7] = molecular target: Gal(b1-4)GlcNAc(b1-3)[GlcNAc(b1-6)]Gal(b1-4)GlcNAc
# Outline: as §1
# [8] = molecular target: Gal(b1-4)GlcNAc(b1-6)Gal(b1-4)GlcNAc
# Outline: as §1
# [9] = molecular target: Gal(b1-4)GlcNAc(b1-6)GalNAc
# Outline: as §1
# [10] = molecular target: Gal(b1-4)GlcNAc(b1-6)[Gal(b1-3)]GalNAc
# Outline: as §1
# [11] = molecular target: Gal(b1-4)GlcNAc(b1-6)[Gal(b1-4)GlcNAc(b1-3)]GalNAc
# Outline: as §1
# [12] = molecular target: Gal(b1-4)GlcNAc6P
# Outline: as §1
# [13] = molecular target: Gal(b1-6)Gal
# Outline: as §1
# [14] = molecular target: Gal3S(b1-3)GalNAc
# Outline: as §1
# [15] = molecular target: Gal3S(b1-3)GlcNAc
# Outline: as §1
# [16] = molecular target: Gal3S(b1-3)[Fuc(a1-4)]GlcNAc
# Outline: as §1
# [17] = molecular target: Gal3S(b1-4)Glc
# Outline: as §1
# [18] = molecular target: Gal3S(b1-4)Glc6S
# Outline: as §1
# [19] = molecular target: Gal3S(b1-4)GlcNAc
# Outline: as §1
# [20] = molecular target: Gal3S(b1-4)[Fuc(a1-3)]Glc6S
# Outline: as §1
# [21] = molecular target: Gal3S(b1-4)[Fuc(a1-3)]GlcNAc
# Outline: as §1
# [22] = molecular target: Gal3S(b1-4)[Fuc(a1-3)]GlcNAc6S
# Outline: as §1
# [23] = molecular target: Gal3S4S(b1-4)GlcNAc
# Outline: as §1
# [24] = molecular target: Gal3S6S(b1-4)GlcNAc
# Outline: as §1
# [25] = molecular target: Gal3S6S(b1-4)GlcNAc6S
# Outline: as §1
# [26] = molecular target: Gal4S(b1-4)GlcNAc
# Outline: as §1
# [27] = molecular target: Gal4S6S(b1-4)GlcNAc
# Outline: as §1
# [28] = molecular target: Gal6P(b1-4)GlcNAc
# Outline: as §1
# [29] = molecular target: Gal6S(b1-3)GlcNAc
# Outline: as §1
# [30] = molecular target: Gal6S(b1-3)GlcNAc6S
# Outline: as §1
# [31] = molecular target: Gal6S(b1-4)Glc
# Outline: as §1
# [32] = molecular target: Gal6S(b1-4)Glc6S
# Outline: as §1
# [33] = molecular target: Gal6S(b1-4)GlcNAc
# Outline: as §1
# [34] = molecular target: Gal6S(b1-4)GlcNAc6S
# Outline: as §1
# [35] = molecular target: GalNAc(a1-3)Gal
# Outline: as §1
# [36] = molecular target: GalNAc(a1-3)GalNAc
# Outline: as §1
# [37] = molecular target: GalNAc(a1-3)GalNAc(b1-3)Gal(a1-4)Gal(b1-4)Glc
# Outline: as §1
# [38] = molecular target: GalNAc(a1-3)GalNAc(b1-3)Gal(a1-4)Gal(b1-4)GlcNAc
# Outline: as §1
# [39] = molecular target: GalNAc(b1-3)Gal
# Outline: as §1
# [40] = molecular target: GalNAc(b1-3)Gal(a1-4)Gal(b1-4)GlcNAc
# Outline: as §1
# [41] = molecular target: GalNAc(b1-3)Gal(a1-4)Gal(b1-4)GlcNAc(b1-3)Gal(b1-4)Glc
# Outline: as §1
# [42] = molecular target: GalNAc(b1-3)Gal(a1-6)Gal(b1-4)Glc
# Outline: as §1
# [43] = molecular target: GalNAc(b1-3)GalNAc
# Outline: as §1
# [44] = molecular target: GalNAc(b1-3)GlcNAc
# Outline: as §1
# [45] = molecular target: GalNAc(b1-4)Gal(b1-4)Glc
# Outline: as §1
binder,measurement,setting,value
B1,glycan array binding signal (z-score),[1],0.667
same,glycan array binding signal (z-score),[2],0.769
same,glycan array binding signal (z-score),[3],-0.821
same,glycan array binding signal (z-score),[4],-0.436
same,glycan array binding signal (z-score),[5],1.14
same,glycan array binding signal (z-score),[6],-0.87
same,glycan array binding signal (z-score),[7],-0.765
same,glycan array binding signal (z-score),[8],1.2
same,glycan array binding signal (z-score),[9],1.54
same,glycan array binding signal (z-score),[10],1.42
same,glycan array binding signal (z-score),[11],0.528
same,glycan array binding signal (z-score),[12],-0.519
same,glycan array binding signal (z-score),[13],0.54
same,glycan array binding signal (z-score),[14],-0.627
same,glycan array binding signal (z-score),[15],-0.636
same,glycan array binding signal (z-score),[16],-1.14
same,glycan array binding signal (z-score),[17],1.24
same,glycan array binding signal (z-score),[18],-0.538
same,glycan array binding signal (z-score),[19],-0.182
same,glycan array binding signal (z-score),[20],0.52
same,glycan array binding signal (z-score),[21],-0.127
same,glycan array binding signal (z-score),[22],-0.189
same,glycan array binding signal (z-score),[23],0.577
same,glycan array binding signal (z-score),[24],-0.768
same,glycan array binding signal (z-score),[25],0.715
same,glycan array binding signal (z-score),[26],-0.917
same,glycan array binding signal (z-score),[27],0.956
same,glycan array binding signal (z-score),[28],0.206
same,glycan array binding signal (z-score),[29],0.065
same,glycan array binding signal (z-score),[30],0.233
same,glycan array binding signal (z-score),[31],0.048
same,glycan array binding signal (z-score),[32],-0.08
same,glycan array binding signal (z-score),[33],-0.727
same,glycan array binding signal (z-score),[34],-1.31
same,glycan array binding signal (z-score),[35],0.811
same,glycan array binding signal (z-score),[36],-0.516
same,glycan array binding signal (z-score),[37],-0.692
same,glycan array binding signal (z-score),[38],-0.361
same,glycan array binding signal (z-score),[39],0.381
same,glycan array binding signal (z-score),[40],4.96
same,glycan array binding signal (z-score),[41],-0.955
same,glycan array binding signal (z-score),[42],0.724
same,glycan array binding signal (z-score),[43],-0.776
same,glycan array binding signal (z-score),[44],-0.979
same,glycan array binding signal (z-score),[45],-0.762
